Measurements reported in patent US20230080144A1, “REAL-TIME FLUORESCENCE IMAGING SENSOR FOR MEASURING GLUTATHIONE IN ENDOPLASMIC RETICULUM AND METHOD USING SAME” (CELL2IN, INC., priority 2019, published 2023).

System: UC-MSCs
Experiment: Measurement of intracellular retention time of each ER-FT derivative compound (Operetta imaging)
Type: cell-based
Conditions: for fluorescence intensity as a function of retention time: 510 nm and 580 nm, 10, 15 and 20 μM staining for 1 hour
Procedure: (1) UC-MSCs were seeded into 96-well plates at a density of 4,000 cells/well and then cultured 24 hours. (2) Cell media containing each of ER-FTs (Formulas IV to VI) at concentrations of 10, 15 and 20 μM were prepared. (3) After medium suction, ER-FT staining was performed, followed by incubation in an incubator at 37° C. for 1 hour. (4) After medium suction, 100 μl of HBSS was added to each well.

| Compound | fluorescence intensity as a function of retention time | retention in the cells |
| --- | --- | --- |
| Cc1ccc(S(=O)(=O)NCCNC(=O)C2CCN(C(=O)C(C#N)=Cc3cc4cc5c6c(c4oc3=O)CCCN6CCC5)CC2)cc1 [Formula IV] | constant fluorescence intensity |  |
| N#CC(=Cc1cc2cc3c4c(c2oc1=O)CCCN4CCC3)C(=O)N1CCC(C(=O)NCCCOCCOCCOCCCNC(=O)c2c(F)c(F)c(F)c(F)c2F)CC1 [Formula VII] | high at the initial stage, but decreased gradually during the initial 20 minutes | remained in the cells for a long time |
| N#CC(=Cc1cc2cc3c4c(c2oc1=O)CCCN4CCC3)C(=O)N1CCC(C(=O)NCCNC(=O)c2c(F)c(F)c(F)c(F)c2F)CC1 [Formula VI] | high at the initial stage, but decreased gradually during the initial 20 minutes | remained in the cells for a long time |
| Cc1ccc(S(=O)(=O)NCCCOCCOCCOCCCNC(=O)C2CCN(C(=O)C(C#N)=Cc3cc4cc5c6c(c4oc3=O)CCCN6CCC5)CC2)cc1 [Formula V] | constant fluorescence intensity |  |
